# According to article PMC12135512:
# The chains behind the UniProt entries cited, without tags or fusion partners. Residues count along the entry.
# UniProt P43057, residues 371-636: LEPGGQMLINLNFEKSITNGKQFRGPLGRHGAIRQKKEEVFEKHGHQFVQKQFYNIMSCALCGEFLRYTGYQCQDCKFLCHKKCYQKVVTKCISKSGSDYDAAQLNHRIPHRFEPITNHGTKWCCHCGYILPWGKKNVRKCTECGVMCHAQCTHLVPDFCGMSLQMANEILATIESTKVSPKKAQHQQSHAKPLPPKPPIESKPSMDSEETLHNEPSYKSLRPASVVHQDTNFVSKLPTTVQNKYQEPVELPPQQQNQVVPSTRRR
# UniProt O42825: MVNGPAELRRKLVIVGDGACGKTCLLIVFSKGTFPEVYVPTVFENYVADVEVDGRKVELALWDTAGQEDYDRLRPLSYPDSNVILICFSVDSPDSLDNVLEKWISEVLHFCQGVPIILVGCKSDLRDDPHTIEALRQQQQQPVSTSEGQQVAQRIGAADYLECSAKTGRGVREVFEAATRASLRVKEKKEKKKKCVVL
# These are yes or no findings as the source states them, for the method shown. In cells and extracts the contact can be indirect. Some results given as binding are weak or reduced against the parent protein; the word gives no strength.
# Target: C. albicans Pkc1p-RBD (aa 371-636) fused to CaGFP (C. albicans) (UniProt P43057)
# Experiment: pull-down; GFP-Trap Agarose (Chromotek) on lysates (200 µg total protein, NP-40 lysis buffer) of C. albicans cells co-expressing Rho1p-13xcMyc and PKC-RBD-CaGFP; western blot of the eluate with anti-cMyc 9E10; wild type, irs4 and inp51 mutants; stationary phase (overnight) or early exponential phase (4 hours subculture)
substance,measurement,value
Rho1p-13xcMyc (active Rho1p) (from UniProt O42825 1-198),binding,binds
